These results are taken from the supplement of paper PMC4604168 (melanoma cell lines).

Molecules are shown by their SMILES. The list shows a part of the results. Many values rest on one well or one pass, so single values are uncertain.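 Imaging used 1,536-well plates; nuclei positive for cleaved PARP by antibody were divided by total DNA-stained nuclei to yield the apoptosis fraction. Doses for screening kept most cells viable, and cell lines differ markedly in resting and induced cleaved-PARP levels.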

For the first test, the system named is CBRC034 (line from a melanoma biopsy). The test is described as follows: cleaved PARP positive nuclei fraction relative to DMSO control; melanoma cells; higher = more apoptosis. As to conditions: library dose: low library concentration; 72 h.
For the compound `C#Cc1cccc(Nc2ncnc3cc(OCCOC)c(OCCOC)cc23)c1` [erlotinib] + Cc1cc(SCc2sc(-c3ccc(C(F)(F)F)c(F)c3)nc2C)ccc1OCC(=O)O [GW0742] (first compound 0.8 µM, partner dose 2 µM), the “cleaved PARP positive nuclei fraction” value is 88.3%. With `C[As](C)SC[C@H](NC(=O)CC[C@H](N)C(=O)O)C(=O)NCC(=O)O` [Darinaparsin] + COc1ccc(-c2ccc3c(N4CCOCC4)nc(N4C[C@@H](C)O[C@@H](C)C4)nc3n2)cc1CO [KU0063794] (first compound 0.4 µM, partner dose 0.02 µM), the “cleaved PARP positive nuclei fraction” value came to 89.9%. With `Cn1cc(C2=C(c3cn(C4CCN(Cc5ccccn5)CC4)c4ccccc34)C(=O)NC2=O)c2ccccc21` [Enzastaurin] + C[C@@H](Oc1cc(-c2cnn(C3CCNCC3)c2)cnc1N)c1c(Cl)ccc(F)c1Cl [Crizotinib] (first compound 0.8 µM, partner dose 0.2 µM), the “cleaved PARP positive nuclei fraction” value was found to be 94.3%.

A further test relates to COLO792. The description is as above. The settings on record: library dose: low library concentration; 72 h.
With `C[C@@H]1CCN(C(=O)CC#N)C[C@@H]1N(C)c1ncnc2[nH]ccc12` + O=C(Oc1ccc([N+](=O)[O-])cc1)N1CCC(C(O)(c2ccc3c(c2)OCO3)c2ccc3c(c2)OCO3)CC1 [JZL184] (first compound 1 µM, partner dose 1 µM), the “cleaved PARP positive nuclei fraction” value stood at 42.7%.

In the case of `C[As](C)SC[C@H](NC(=O)CC[C@H](N)C(=O)O)C(=O)NCC(=O)O` [Darinaparsin] + C/C(O)=C(\C#N)C(=O)Nc1cc(Br)ccc1Br [LFM-A13] (first compound 0.4 µM, partner dose 2 µM), the “cleaved PARP positive nuclei fraction” value is 169%.

Turning to `Cn1c(=O)n(-c2ccc(C(C)(C)C#N)cc2)c2c3cc(-c4cnc5ccccc5c4)ccc3ncc21` + N.N.[Cl][Pt][Cl] [cisplatin] (first compound 0.004 µM, partner dose 1.6 µM), the “cleaved PARP positive nuclei fraction” value was found to be 163%. Still for that read-out and setting: the same measure for `CC(=O)O[C@@]12CO[C@@H]1C[C@H](O)[C@@]1(C)C(=O)[C@H](O)C3=C(C)[C@@H](OC(=O)[C@H](O)[C@@H](NC(=O)OC(C)(C)C)c4ccccc4)C[C@@](O)([C@@H](OC(=O)c4ccccc4)[C@H]21)C3(C)C` [Docetaxel] + C[As](C)SC[C@H](NC(=O)CC[C@H](N)C(=O)O)C(=O)NCC(=O)O [Darinaparsin] (first compound 0.0001 µM, partner dose 0.4 µM): 553%; for `C[C@]12O[C@H](C[C@]1(O)CO)n1c3ccccc3c3c4c(c5c6ccccc6n2c5c31)CNC4=O` [Lestaurtinib] + Cn1c(Nc2ccc(C(F)(F)F)cc2)nc2cc(Oc3ccnc(-c4ncc(C(F)(F)F)[nH]4)c3)ccc21 [CHIR265] (first compound 0.004 µM, partner dose 0.08 µM): 187%; for `Cn1cc(C2=C(c3cn(C4CCN(Cc5ccccn5)CC4)c4ccccc34)C(=O)NC2=O)c2ccccc21` [Enzastaurin] + Cc1cc(Nc2cc(N3CCN(C)CC3)nc(/C=C/c3ccccc3)n2)n[nH]1 [ENMD2076] (first compound 0.8 µM, partner dose 0.04 µM): 48.8%.

As for `Cc1cc(Nc2cc(N3CCN(C)CC3)nc(Sc3ccc(NC(=O)C4CC4)cc3)n2)n[nH]1` [Tozasertib] + N.N.[Cl][Pt][Cl] [cisplatin] (first compound 0.006 µM, partner dose 1.6 µM), the “cleaved PARP positive nuclei fraction” value was 159%.

Turning to `C[C@]12O[C@H](C[C@]1(O)CO)n1c3ccccc3c3c4c(c5c6ccccc6n2c5c31)CNC4=O` [Lestaurtinib] + C[C@@H](Oc1cc(-c2cnn(C3CCNCC3)c2)cnc1N)c1c(Cl)ccc(F)c1Cl [Crizotinib] (first compound 0.004 µM, partner dose 0.2 µM), the “cleaved PARP positive nuclei fraction” value stood at 122%. As for `N.N.[Cl][Pt][Cl]` [cisplatin] + Clc1ccc(Nc2nnc(Cc3ccncc3)c3ccccc23)cc1 [vatalanib] (first compound 1.6 µM, partner dose 2 µM), the “cleaved PARP positive nuclei fraction” value turned out to be 116%.

As to `O=c1[nH]nc(Sc2ncc([N+](=O)[O-])s2)n1-c1ccc2c(c1)OCCO2` + C[C@]12O[C@H](C[C@]1(O)CO)n1c3ccccc3c3c4c(c5c6ccccc6n2c5c31)CNC4=O [Lestaurtinib] (first compound 0.2 µM, partner dose 0.004 µM), the “cleaved PARP positive nuclei fraction” value was 37.1%. The same measure, in the same setting: the figure for `COc1cc([C@@H]2c3cc4c(cc3[C@@H](O[C@@H]3O[C@@H]5CO[C@@H](C)O[C@H]5[C@H](O)[C@H]3O)[C@H]3COC(=O)[C@H]23)OCO4)cc(OC)c1O` [etoposide] + N.N.[Cl][Pt][Cl] [cisplatin] (first compound 0.02 µM, partner dose 1.6 µM) is 103%.
